The target in the test is T1, Cytochrome b5 of Paracoccidioides brasiliensis, recombinant (Paracoccidioides brasiliensis) (UniProt C1G8H3).
T1 sequence: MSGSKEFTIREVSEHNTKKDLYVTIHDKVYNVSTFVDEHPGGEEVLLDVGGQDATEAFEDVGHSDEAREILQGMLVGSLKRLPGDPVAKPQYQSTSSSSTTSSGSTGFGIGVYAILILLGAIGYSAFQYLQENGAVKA
Nature of the test: far-Western, overlay or dot blot; 20 ug recombinant PbCyb5 after SDS-PAGE on nitrocellulose; incubated 1 h at room temperature with purified recombinant PbAtx1 at 35 ug/mL in PBS, 5% non-fat milk, 0.1% Tween 20; detected with anti-PbAtx1 polyclonal antibodies; both purified.

For 1 molecule, binding results are on record in article PMC9963772.

These are yes or no findings as the source states them, for the method shown. Some results given as binding are weak or reduced against the parent protein; the word gives no strength.

B1: Copper metallochaperone Atx1 of Paracoccidioides brasiliensis, recombinant (protein, UniProt C1G2I6 1-81)
chain: MASVEHQYKFNISMSCGGCSGAVERVLKKLDGVKSYTVNLESQTATVVADPSLEYDTVLSTIKKTGKTVNSGEADGEPKDV
For the molecule B1, the binding entry is “binds”.
